{
  "sequences": {"note": "Protein sequences, listed by entry. Tags and fused reporters are not part of them.", "UniProt Q92830, whole entry, looked up": "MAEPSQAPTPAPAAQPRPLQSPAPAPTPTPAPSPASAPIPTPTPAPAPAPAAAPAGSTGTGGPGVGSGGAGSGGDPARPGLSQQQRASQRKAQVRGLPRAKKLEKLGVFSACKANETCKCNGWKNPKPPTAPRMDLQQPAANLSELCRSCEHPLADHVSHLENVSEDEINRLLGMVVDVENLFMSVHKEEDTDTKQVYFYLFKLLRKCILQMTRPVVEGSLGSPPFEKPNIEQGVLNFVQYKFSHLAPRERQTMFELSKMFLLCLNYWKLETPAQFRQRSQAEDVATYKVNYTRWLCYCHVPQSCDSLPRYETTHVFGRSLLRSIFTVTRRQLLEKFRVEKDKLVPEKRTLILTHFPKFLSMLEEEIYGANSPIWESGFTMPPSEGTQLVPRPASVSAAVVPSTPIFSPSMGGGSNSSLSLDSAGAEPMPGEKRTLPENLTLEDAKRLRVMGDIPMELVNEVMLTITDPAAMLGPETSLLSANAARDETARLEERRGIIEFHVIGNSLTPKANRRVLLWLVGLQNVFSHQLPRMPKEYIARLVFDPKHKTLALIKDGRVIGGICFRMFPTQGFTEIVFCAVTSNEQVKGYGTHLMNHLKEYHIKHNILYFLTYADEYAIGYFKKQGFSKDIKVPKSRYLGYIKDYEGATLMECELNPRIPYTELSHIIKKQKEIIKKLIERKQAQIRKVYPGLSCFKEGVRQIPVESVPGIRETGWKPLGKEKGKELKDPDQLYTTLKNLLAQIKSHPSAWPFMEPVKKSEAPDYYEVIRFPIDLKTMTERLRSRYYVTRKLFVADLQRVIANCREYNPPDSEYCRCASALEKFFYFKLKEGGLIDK"},
  "source": "PubChem BioAssay AID504327",
  "about": "(National Center for Advancing Translational Sciences (NCATS), 2011)",
  "note": "Values joined by “and” are separate entries in the source; they are usually repeats but may differ in a detail not shown here. Identical values can stand only once. About 820 (0.21%) of roughly 390,000 compounds were called active. The shares of active, inactive and inconclusive entries below differ from those in the screen. Calls follow the shape of the dose curve; as a rule, active = well fitted inhibition curve with a large enough effect; inconclusive = small, poorly fitted or top-dose-only effect, or another doubt; inactive = no such curve, though single readings can be large or run the other way. Where the call is inconclusive, the potency comes from a doubtful curve fit. Potency is read from the fitted curve at half-maximal effect.",
  "data": [
    {"molecular_target": "Histone acetyltransferase KAT2A (Homo sapiens) (UniProt Q92830)", "test": "qHTS Assay for Inhibitors of GCN5L2", "conditions": "GCN5L2 HAT assay, ThioGlo1 CoA-SH fluorescence; series mostly up to 58.9 µM", "summary_of_the_method": "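Titration-based screen in which CoA formation is detected via maleimide probe ThioGlo1 (50uM) turning fluorescent on thiol reaction; substrates H3(1-25) 75uM and acetyl-CoA 70uM, GCN5L2 20nM, 20 min incubation at room temperature.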", "values": [
      {"smiles": "Cc1cc(C)c(CSc2ncnc3nc[nH]c23)c(C)c1", "Potency": "inactive"},
      {"smiles": "COc1ccc(NS(=O)(=O)c2ccc(I)cc2)cc1N1CCN(C)CC1", "Potency": "inconclusive: 39.8 µM [inhibitor, single point]"},
      {"smiles": "Ic1ccc(N2CCN(Cc3c[nH]c4ncccc34)CC2)cc1", "Potency": "inconclusive: 39.8 µM [inhibitor, single point]"},
      {"smiles": "Cn1cc(/C=C2/SC(=O)N(c3ccccc3)C2=O)c2ccccc21", "Potency": "inconclusive: 0.447 µM [inhibitor, full curve]"},
      {"smiles": "O=C(COc1ccc(Cl)cc1)Nc1sc2c(c1C(=O)Nc1cccc(Cl)c1)CCCC2", "Potency": "inconclusive: 39.8 µM [inhibitor, single point]"},
      {"smiles": "COCCNC(=O)c1c(N)n(-c2ccccc2)c2nc3ccccc3nc12", "Potency": "inconclusive: 14.1 µM [inhibitor, partial curve]"},
      {"smiles": "O=C1c2cccc3c(N4CCCCC4)ccc(c23)C(=O)N1c1cccc(O)c1", "Potency": "inactive"},
      {"smiles": "CC(=O)N1c2ccc(S(=O)(=O)NCC3CCC(C(=O)N4CCCC(C)C4)CC3)cc2CC1C", "note": "(stereo not drawn)", "Potency": "inactive"},
      {"smiles": "CC(=O)c1sc2nc(-c3ccco3)ccc2c1N", "Potency": "inconclusive: 14.1 µM [inhibitor, partial curve, poor fit]"},
      {"smiles": "CCOc1ccccc1NC(=O)Cc1coc2c(C)c(C)ccc12", "Potency": "inactive"},
      {"smiles": "CC(=O)c1cc(C(=O)c2ccccc2)sc1Nc1ccccc1", "Potency": "inactive"},
      {"smiles": "Cc1nc2c(C(=O)NCc3ccccc3Cl)c[nH]n2c(=O)c1Cc1cccc(Cl)c1", "Potency": "inconclusive: 39.8 µM [inhibitor, single point]"},
      {"smiles": "COc1ccc(-c2ccc3c(=O)cc(-c4ccsc4)oc3c2)cn1", "Potency": "inconclusive: 39.8 µM [inhibitor, single point]"},
      {"smiles": "CCOC(=O)c1c(-c2ccccc2)oc2ccc(OCC(O)CN(C)C)cc12", "note": "(stereo not drawn)", "Potency": "inactive"},
      {"smiles": "CC(C)N(C(=O)CSc1nnnn1C1CCCC1)C(C)C", "Potency": "inconclusive: 6.31 µM [inhibitor, single point]"},
      {"smiles": "CCCn1c(CNC(=O)c2ccccc2)nc2ccccc21", "Potency": "inconclusive: 8.91 µM [inhibitor, single point]"},
      {"smiles": "Clc1ccccc1/C=C/c1ccnc2ccccc12", "Potency": "inconclusive: 39.8 µM [inhibitor, single point]"},
      {"smiles": "CC(C)CC(=O)N1CCN(Cc2cccc(F)c2)CC1", "Potency": "inconclusive: 25.1 µM [inhibitor, partial curve, poor fit]"},
      {"smiles": "O=C(Cc1ccc(Cl)cc1)Nc1ccccc1Sc1ccccc1", "Potency": "inactive"},
      {"smiles": "COc1ccc(Cl)cc1C(=O)NNC(=S)NC(=O)/C=C/c1ccco1", "Potency": "inconclusive: 28.2 µM [inhibitor, single point]"},
      {"smiles": "Cc1cc(C)c(S(=O)(=O)Nc2ccc[nH]c2=O)c(C)c1", "Potency": "inactive"},
      {"smiles": "COc1cc(C(=O)Nc2cccc3c2CCCC3)cc(OC)c1OC", "Potency": "inconclusive: 4.47 µM [inhibitor, full curve, poor fit]"},
      {"smiles": "O=C(Nc1ccc(Cl)cc1)c1ccc2snnc2c1", "Potency": "inconclusive: 39.8 µM [inhibitor, single point]"},
      {"smiles": "Cc1nc(SCc2ccc(O)c([N+](=O)[O-])c2)c([N+](=O)[O-])[nH]1", "Potency": "active: 14.1 µM"},
      {"smiles": "Cc1ccc(NC(=O)Cn2cc(C(=O)c3ccco3)c3ccccc32)cc1", "Potency": "inconclusive: 17.8 µM [inhibitor, partial curve]"},
      {"smiles": "CN1CCN(c2ncc3nc(CCc4ccccc4)c(=O)n(CCC#N)c3n2)CC1", "Potency": "inconclusive: 31.6 µM [inhibitor, partial curve]"},
      {"smiles": "CN(Cc1ccccc1)S(=O)(=O)c1ccc2c(c1)n(C)c(=O)c(=O)n2C", "Potency": "inactive"},
      {"smiles": "CCc1ccc(OCC(=O)O/N=C(\\N)c2ccccn2)cc1", "Potency": "inconclusive: 8.91 µM [inhibitor, single point]"},
      {"smiles": "CC(=O)OC1CC[C@]2(C)C(CC[C@@]3(C)C2C(=O)C=C2C4C(C)C(C)CC[C@@]4(C(=O)O)CCC23C)C1(C)C", "note": "(stereo partly drawn)", "Potency": "inconclusive: 39.8 µM [inhibitor, single point]"},
      {"smiles": "O=C(Nc1cccc(C(=O)Nc2ccc(S(=O)(=O)O)c3cc(S(=O)(=O)O)cc(S(=O)(=O)O)c23)c1)Nc1cccc(C(=O)Nc2ccc(S(=O)(=O)O)c3cc(S(=O)(=O)O)cc(S(=O)(=O)O)c23)c1", "Potency": "inconclusive: 31.6 µM [inhibitor, single point]"},
      {"smiles": "CC[C@@H]1Cn2c(c3nc(-c4cc(Cl)cc(Cl)c4Cl)nc-3n(C)c2=O)N1", "Potency": "inconclusive: 2.82 µM [inhibitor, full curve, poor fit]"},
      {"smiles": "Cc1cc(O)c2c(C)c(CC(=O)N3CCCCC3)c(=O)oc2c1", "Potency": "inactive"},
      {"smiles": "Cc1ccc(-c2nnc3ccc(SC(C)C(=O)O)nn23)cc1", "note": "(stereo not drawn)", "Potency": "inconclusive: 39.8 µM [inhibitor, single point]"},
      {"smiles": "Cc1ccc(C)c2[nH]c(=O)c(CN(Cc3cccnc3)C(=S)NCc3ccco3)cc12", "Potency": "inconclusive: 39.8 µM [inhibitor, single point]"},
      {"smiles": "Cc1ncc(CO)c2c1Oc1nc(-c3ccc(F)cc3)nc(SCc3ccc(F)cc3Cl)c1C2", "Potency": "inconclusive: 35.5 µM [inhibitor, single point]"},
      {"smiles": "Cc1ccc(CSCc2ccc(C(=O)NCCCN3CCOCC3)o2)cc1", "Potency": "inactive"},
      {"smiles": "Cc1ccc2nc(-c3ccccc3)cc(C(=O)N3CCN(c4ccccc4O)CC3)c2c1", "Potency": "inactive"},
      {"smiles": "CCC(C)Sc1cccc(-c2nc3ccc(C)cn3c2NC2CCCCC2)c1", "note": "(stereo not drawn)", "Potency": "inconclusive: 28.2 µM [inhibitor, partial curve]"},
      {"smiles": "CC(C)(C)c1cc(-c2csc(Nc3ccccc3)[n+]2Cc2ccc(C(=O)O)cc2)cc(C(C)(C)C)c1O", "Potency": "active: 22.4 µM"},
      {"smiles": "O=C(O)CCN1C(=O)c2ccc(NC(=O)COc3ccccc3)cc2C1=O", "Potency": "inconclusive: 3.16 µM [inhibitor, partial curve]"},
      {"smiles": "COc1cccc2c1C(=O)c1c(O)c3c(c(O)c1C2=O)C[C@@](O)(C(C)=O)C[C@@H]3O[C@H]1C[C@H](N)[C@H](O)[C@H](C)O1", "Potency": "inactive and inconclusive: 316 nM [inhibitor, full curve, poor fit]"},
      {"smiles": "S=C(Nc1ccc(Oc2ccccc2)cc1)N1CCN(c2ccccn2)CC1", "Potency": "inactive"},
      {"smiles": "CS(=O)(=O)c1ccccc1-c1nnc(NC(=O)Cc2ccccc2)o1", "Potency": "inconclusive: 0.141 µM [inhibitor, full curve, poor fit]"},
      {"smiles": "CCc1ccc(NC(=O)NCC2CCN(c3ccc(OC)cc3)C2)cc1", "note": "(stereo not drawn)", "Potency": "inactive"},
      {"smiles": "CCOc1ccc(C2/C(=C(\\O)c3ccc4c(c3)OCCO4)C(=O)C(=O)N2Cc2cccnc2)cc1OCC", "note": "(stereo not drawn)", "Potency": "inconclusive: 39.8 µM [inhibitor, single point]"},
      {"smiles": "CCc1cc(=O)oc2c3c(cc(OCC(=O)NCCN4CCOCC4)c12)OC(C)(C)CC3", "Potency": "inconclusive: 39.8 µM [inhibitor, single point]"},
      {"smiles": "CCOC(=O)c1cc(CC)sc1NC(=O)c1cccc(N2C(=O)CCC2=O)c1", "Potency": "inactive"},
      {"smiles": "CCc1ccc(-c2cc(C)no2)cc1S(=O)(=O)Nc1cc(OC)c(OC)c(OC)c1", "Potency": "inactive"},
      {"smiles": "O=C(C1=C(O)C(=O)N(Cc2ccco2)C1c1cccc([N+](=O)[O-])c1)c1ccco1", "note": "(stereo not drawn)", "Potency": "inconclusive: 1.41 µM [inhibitor, full curve, poor fit]"},
      {"smiles": "Cn1cnc([N+](=O)[O-])c1Oc1ccc2ccccc2c1", "Potency": "inactive"},
      {"smiles": "Cc1ccc(-c2nc(CS(=O)(=O)CC(=O)N3CCCCCC3)c(C)o2)cc1", "Potency": "inactive"},
      {"smiles": "COc1ccc(NC(=O)C(CC(=O)O)Cc2ccc(Cl)cc2)cc1", "note": "(stereo not drawn)", "Potency": "inconclusive: 0.447 µM [inhibitor, single point]"},
      {"smiles": "O=C(CCn1c(=O)c2cccn2c2cccnc21)NCc1ccc(Cl)cc1", "Potency": "inactive"},
      {"smiles": "COc1ccccc1NC(=O)C1=C(C)Nc2c(C(=O)Nc3cccc(C)c3)cnn2C1c1ccccc1C", "note": "(stereo not drawn)", "Potency": "active: 28.2 µM"},
      {"smiles": "Cc1ccc(-c2cc(C(=O)N(C)CC(=O)Nc3ccccc3Br)c3ccccc3n2)o1", "Potency": "inconclusive: 35.5 µM [inhibitor, single point]"},
      {"smiles": "O=c1oc2c(O)c(O)cc3c(=O)oc4c(O)c(O)cc1c4c23", "Potency": "inconclusive: 25.1 µM [inhibitor, single point]"},
      {"smiles": "Cc1cc(NC(=O)CSc2nc3c(c(=O)n(C)c(=O)n3C)n2C(C)C)no1", "Potency": "inactive"},
      {"smiles": "CCOc1ccc(S(=O)(=O)N(CC(=O)N/N=C/c2ccc(-c3ccc([N+](=O)[O-])cc3)o2)c2ccccc2)cc1", "Potency": "inconclusive: 2 µM [inhibitor, full curve]"},
      {"smiles": "O=C(N/N=C/c1ccc2c(c1)OCO2)c1ccc(COCC(F)(F)C(F)F)cc1", "Potency": "inactive"},
      {"smiles": "C=CCN1C(=O)/C(=C2/C(=O)N(CC(=O)O)c3ccccc32)S/C1=N/c1nccs1", "Potency": "inconclusive: 28.2 µM [inhibitor, partial curve, poor fit]"},
      {"smiles": "NS(=O)(=O)c1ccc(NC(=O)COC(=O)/C(=C/c2cccs2)c2cccs2)cc1", "Potency": "inconclusive: 0.794 µM [inhibitor, single point]"},
      {"smiles": "COc1ccc(C)cc1NC(=O)C1CCN(S(C)(=O)=O)CC1", "Potency": "inactive"},
      {"smiles": "CC1CSc2ccccc2NC1=S", "note": "(stereo not drawn)", "Potency": "inactive"},
      {"smiles": "CN1c2ccccc2C(C)(C)C12C=Nc1c(ccc3ccccc13)O2", "note": "(stereo not drawn)", "Potency": "inconclusive: 39.8 µM [inhibitor, single point]"},
      {"smiles": "O=C(NCc1ccccc1C(F)(F)F)C1CCC(=O)N(C2CC2)C1", "note": "(stereo not drawn)", "Potency": "inactive"},
      {"smiles": "Cc1nc2ccc(NC(=O)/C=C/C(=O)O)cc2nc1C", "Potency": "inconclusive: 0.794 µM [inhibitor, single point]"},
      {"smiles": "CC1Sc2ccc(S(=O)(=O)CCC(=O)NC3CCCCC3C)cc2NC1=O", "note": "(stereo not drawn)", "Potency": "inconclusive: 0.708 µM [inhibitor, single point]"},
      {"smiles": "CC(C)OC(=O)CCCCCN1C(=O)CSC1=S", "Potency": "inconclusive: 25.1 µM [inhibitor, single point]"}
    ]}
  ]
}
